{"sequences": {"note": "Sequences of proteins named here, by UniProt entry; tags and fusion partners are left off. A change or cut given only in a name is not applied to a line headed by its entry.", "UniProt Q9UNA4": "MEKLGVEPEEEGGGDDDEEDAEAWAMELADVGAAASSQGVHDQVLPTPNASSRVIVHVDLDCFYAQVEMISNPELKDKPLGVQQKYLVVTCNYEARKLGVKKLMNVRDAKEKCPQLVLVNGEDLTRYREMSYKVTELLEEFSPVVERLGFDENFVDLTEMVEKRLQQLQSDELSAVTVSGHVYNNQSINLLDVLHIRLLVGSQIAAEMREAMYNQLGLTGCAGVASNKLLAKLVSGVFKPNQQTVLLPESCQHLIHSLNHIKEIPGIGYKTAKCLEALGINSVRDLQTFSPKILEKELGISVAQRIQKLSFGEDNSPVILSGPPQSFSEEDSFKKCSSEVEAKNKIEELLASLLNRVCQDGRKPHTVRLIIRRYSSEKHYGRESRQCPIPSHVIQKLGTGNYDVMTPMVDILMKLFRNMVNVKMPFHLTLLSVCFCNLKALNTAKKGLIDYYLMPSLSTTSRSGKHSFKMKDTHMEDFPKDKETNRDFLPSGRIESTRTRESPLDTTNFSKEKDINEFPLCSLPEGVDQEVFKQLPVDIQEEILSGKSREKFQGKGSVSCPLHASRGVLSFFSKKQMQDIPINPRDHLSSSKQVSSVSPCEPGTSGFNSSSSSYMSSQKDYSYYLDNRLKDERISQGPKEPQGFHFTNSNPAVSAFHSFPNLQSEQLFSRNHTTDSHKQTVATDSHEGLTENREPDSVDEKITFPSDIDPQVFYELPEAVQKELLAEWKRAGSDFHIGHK"}, "source": "PubChem BioAssay AID588590", "about": "(National Center for Advancing Translational Sciences (NCATS), 2011)", "note": "Screen size: about 390,000 compounds; about 4,000 (1%) were called active. Inconclusive means that the source gave no clear call. Such entries were picked first, then a sample of the others. Calls come from the whole dose curve; as a rule, active = well fitted inhibition curve with a large enough effect; inconclusive = small, poorly fitted or top-dose-only effect, or another doubt; inactive = no such curve, though single readings can be large or run the other way. A potency beside an inconclusive call is a rough fit, not a confirmed value. Potency is the fitted concentration of half-maximal effect.", "data": [{"target": "DNA polymerase iota (Homo sapiens) (UniProt Q9UNA4)", "experiment": "qHTS for Inhibitors of Polymerase Iota", "details": "Pol iota fluorescent replication assay, 10 min; series mostly up to 115 µM", "in_short": "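Fluorescent replication assay read twice, at 0 min and 10 min after adding 50 nM (final) substrate. Enzyme (10 nM) and compounds were first incubated 15 min at room temperature; enzyme-free buffer wells were negative controls.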", "values": [{"smiles": "CCOC(=O)c1sc2cc([N+](=O)[O-])cc(SCC(=O)OC)c2c1N", "Potency": "inconclusive: 28.2 µM [inhibitor, single point]"}, {"smiles": "CCNc1ccc(S(=O)(=O)C(F)(F)F)cc1NC(=O)C12CCC(CC1)C2", "Potency": "inconclusive: 100 µM [inhibitor, single point]"}, {"smiles": "CCOC(=O)c1c(NC(=O)CCCOc2ccc(C(C)(C)C)cc2)sc2c1CCC2", "Potency": "inactive"}, {"smiles": "CC(=O)OCC(NC(=O)C(CCCCNC(=O)OCc1ccccc1)NC(=O)OC(C)(C)C)C1OC(n2cc(F)c(=O)[nH]c2=O)C(OC(C)=O)C1OC(C)=O", "note": "(centres undefined)", "Potency": "inactive"}, {"smiles": "CC(=O)c1cccc(S(=O)(=O)N2CCC(C(=O)OC3CCOC3=O)CC2)c1", "note": "(centres undefined)", "Potency": "inconclusive: 70.8 µM [inhibitor, partial curve]"}, {"smiles": "CC1(C)OC(=O)C(=Cc2ccc[nH]2)C(=O)O1", "Potency": "inconclusive: 39.8 µM [inhibitor, single point]"}, {"smiles": "COC(=O)C1=C(C)N(CCCC(=O)O)C(=O)NC1c1ccccc1OS(=O)(=O)c1ccccc1[N+](=O)[O-]", "note": "(centres undefined)", "Potency": "inactive"}, {"smiles": "COc1cc(NC(=O)CSCC(=O)Nc2cc(OC)cc(OC)c2)cc(OC)c1", "Potency": "inactive"}, {"smiles": "N[C@@H](Cc1ccccc1)c1nnc(SCc2ccccc2F)o1", "Potency": "inconclusive: 39.8 µM [inhibitor, single point]"}, {"smiles": "COc1ccc(S(=O)(=O)N(C)C)cc1NC(=O)COC(=O)c1nn(C)c(=O)c2ccccc12", "Potency": "inactive"}, {"smiles": "COc1cc2nc(N(C)C)nc(NC3CCN(C)CC3)c2cc1OC", "Potency": "active: 25.1 µM"}, {"smiles": "COc1ccc(CN2CC[C@H]3C=CC[C@@H](C(=O)NCc4cccnc4)[C@H]3C2=O)cc1OC", "Potency": "inconclusive: 100 µM [inhibitor, single point]"}, {"smiles": "Cc1noc(NS(=O)(=O)c2ccc(N/C=C\\C(=O)c3cccc4ccccc34)cc2)c1C", "Potency": "inconclusive: 14.1 µM [inhibitor, partial curve, poor fit]"}, {"smiles": "COc1cc(NC(=S)NC(=O)c2ccccc2F)ccc1NC(=O)c1cccs1", "Potency": "inconclusive: 89.1 µM [inhibitor, single point]"}, {"smiles": "O=C1C2C3CCCC3=C3CCCC3C2C(=O)N1c1ccccc1", "note": "(centres undefined)", "Potency": "inconclusive: 35.5 µM [inhibitor, single point]"}, {"smiles": "CCN(c1ccc(OC)cc1)S(=O)(=O)c1ccc2c(c1)CCN2C(=O)CCC(=O)O", "Potency": "inactive"}, {"smiles": "O=C(COC(=O)c1ccco1)c1ccc2ccccc2c1", "Potency": "inconclusive: 44.7 µM [inhibitor, partial curve, poor fit]"}, {"smiles": "Cc1cc(Cn2nc(C(=O)NCC3CC3)cc2-c2ccccc2)on1", "Potency": "inconclusive: 22.4 µM [inhibitor, partial curve, poor fit]"}, {"smiles": "O=C(C1CC(=O)N(c2ccc(Cl)cc2)C1)N1CCN(Cc2ccc3c(c2)OCO3)CC1", "note": "(centres undefined)", "Potency": "inactive"}, {"smiles": "COc1ccc(-n2cnnc2SCC(=O)c2cc(C)n(Cc3cccs3)c2C)cc1", "Potency": "inconclusive: 22.4 µM [inhibitor, full curve, poor fit]"}, {"smiles": "C#CCNC(=O)C1=C[C@H](c2ccc3c(c2)OCO3)C[C@H](OCCCCO)O1", "Potency": "active: 35.5 µM"}, {"smiles": "Oc1c(CN2CCOCC2)cc(CN2CCOCC2)c(O)c1O", "Potency": "inconclusive: 8.91 µM [inhibitor, full curve, poor fit]"}, {"smiles": "CC1CCCC(C)N1C(=O)CSc1nnc(C2CCCCC2)o1", "note": "(centres undefined)", "Potency": "inconclusive: 126 µM [inhibitor, partial curve, poor fit]"}, {"smiles": "CC(C)Cc1csc(NC(=O)c2ccc(F)cc2)c1C(=O)O", "Potency": "inactive"}, {"smiles": "O=C(CSc1nccn1Cc1ccc(F)cc1)Nc1ccc2c(c1)OCCO2", "Potency": "inactive"}, {"smiles": "COc1ccc(C(=O)N(Cc2cc(OC)c(OC)c(OC)c2)CC2CCCO2)cc1", "note": "(centres undefined)", "Potency": "inactive"}, {"smiles": "CC1=Nc2cc(C(=O)O)ccc2Sc2ccc(Br)cc21", "Potency": "inconclusive: 39.8 µM [inhibitor, single point]"}, {"smiles": "CCC(C)[C@H](NC(=O)Nc1ccc2c(c1)OCCO2)C(=O)O", "note": "(some centres undefined)", "Potency": "inconclusive: 89.1 µM [inhibitor, partial curve, poor fit]"}, {"smiles": "C=CCN(CC=C)CCOc1cccc(Oc2ccccc2)c1", "Potency": "inactive"}, {"smiles": "O=C(O)C1C2C=CC(C2)C1C(=O)Nc1ccc(C(=O)N2CCCCC2)cc1", "note": "(centres undefined)", "Potency": "inconclusive: 10 µM [inhibitor, partial curve]"}, {"smiles": "COc1ccc(/C=N/Nc2ccccc2C(=O)O)cc1Cn1cc([N+](=O)[O-])cn1", "Potency": "inconclusive: 39.8 µM [inhibitor, partial curve, poor fit]"}, {"smiles": "COc1ccccc1CNC(=O)c1ccc(SC)cc1OC", "Potency": "inconclusive: 112 µM [inhibitor, single point]"}, {"smiles": "O=C(NCc1ccco1)/C(=C/c1cccnc1)NC(=O)c1ccco1", "Potency": "inconclusive: 112 µM [inhibitor, single point]"}, {"smiles": "CCN1CCN(CCCOc2ccc(Cl)cc2Br)CC1", "Potency": "inconclusive: 31.6 µM [inhibitor, partial curve, poor fit]"}, {"smiles": "Cn1c(CCC(=O)Nc2ccc(S(C)(=O)=O)cc2)nc2cc(S(=O)(=O)N3CCOCC3)ccc21", "Potency": "inconclusive: 25.1 µM [inhibitor, full curve, poor fit]"}, {"smiles": "CCOc1ccc2nc(NC(=O)C3(C)CC3(Br)Br)sc2c1", "note": "(centres undefined)", "Potency": "inconclusive: 4.47 µM [inhibitor, partial curve, poor fit]"}, {"smiles": "CCc1nc2sccc2c(=O)[nH]1", "Potency": "inactive"}, {"smiles": "COc1ccc(C(=O)Nc2ccc(NC(=O)c3ccco3)c(Cl)c2)cc1OC", "Potency": "inconclusive: 56.2 µM [inhibitor, partial curve, poor fit]"}, {"smiles": "CCN1CCN(CC(=O)Nc2cc(C)on2)CC1", "Potency": "inconclusive: 22.4 µM [inhibitor, full curve, poor fit]"}, {"smiles": "Cc1cc(-c2csc(NC(=O)c3ccc(C#N)cc3)n2)c(C)n1Cc1ccco1", "Potency": "inconclusive: 5.01 µM [inhibitor, full curve, poor fit]"}, {"smiles": "CCS(=O)(=O)n1nc(-c2ccccc2)nc1NCc1ccco1", "Potency": "inconclusive: 44.7 µM [inhibitor, single point]"}, {"smiles": "Cc1cc(=O)n2nc(-c3ccccc3)sc2c1C#N", "Potency": "inconclusive: 25.1 µM [inhibitor, single point]"}, {"smiles": "CCC(Sc1nncn2c1cc1occc12)C(=O)Nc1ccc(C)c(Cl)c1", "note": "(centres undefined)", "Potency": "inactive"}, {"smiles": "O=C(CCl)N(c1ccccc1)c1c[nH]c2ccccc12", "Potency": "inactive"}, {"smiles": "CCc1noc(C)c1C(=O)Nc1ccc(Cl)c(S(=O)(=O)N2CCCCC2)c1", "Potency": "inconclusive: 89.1 µM [inhibitor, partial curve, poor fit]"}, {"smiles": "Cc1ccc(C)c(S(=O)(=O)Nc2ccc(C(=O)NCC(c3ccco3)N(C)C)cc2)c1", "note": "(centres undefined)", "Potency": "inconclusive: 25.1 µM [inhibitor, full curve]"}, {"smiles": "CC[C@]12c3[nH]c4cc(-c5ccco5)ccc4c3CCN1C(=O)[C@@H](CC(=O)NCCCn1ccnc1)C[C@@H]2C(=O)N1CCN(C(=O)C2CC2)CC1", "Potency": "inactive"}, {"smiles": "COc1ccc(OC)c(S(=O)(=O)Nc2ccc(O)c(Sc3ncn[nH]3)c2)c1", "Potency": "inconclusive: 28.2 µM [inhibitor, single point]"}, {"smiles": "Cc1ccc(Sc2cnc3ccccc3n2)cc1", "Potency": "inconclusive: 44.7 µM [inhibitor, single point]"}, {"smiles": "CCc1nnc(NS(=O)(=O)c2ccc(N/C=C\\C(=O)c3cccc4ccccc34)cc2)s1", "Potency": "inactive"}, {"smiles": "O=C(CSc1nc2ccccc2c(=O)n1Cc1ccccc1)Nc1ccc(Br)cc1C(=O)O", "Potency": "inconclusive: 3.98 µM [inhibitor, full curve, poor fit]"}, {"smiles": "CCOC(=O)CSC1=C(C#N)C(c2ccccc2OCC)C(C#N)C(=O)N1", "note": "(centres undefined)", "Potency": "inconclusive: 56.2 µM [inhibitor, partial curve, poor fit]"}, {"smiles": "Cc1cc(C)n(C(N)=NC(=O)c2ccc([N+](=O)[O-])cc2)n1", "Potency": "inconclusive: 89.1 µM [inhibitor, partial curve, poor fit]"}, {"smiles": "CCOc1cc2[nH]c(=O)n(Cc3ccc(C(=O)NCCN(CC)CC)cc3)c(=O)c2cc1OCC", "Potency": "inactive"}, {"smiles": "CC1CCCCC12NC(=O)N(CC(=O)Nc1sccc1C(N)=O)C2=O", "note": "(centres undefined)", "Potency": "inconclusive: 28.2 µM [inhibitor, partial curve, poor fit]"}, {"smiles": "C#CCOCCOCCOCCNc1nc(N2CCN(C(=O)CCCCCCCCCCNC(=O)[C@@H](CCSC)n3cc(CCO)nn3)CC2)nc(N2CCN(C(=O)CCCCCCCCCCNC(=O)[C@H]([C@@H](C)CC)n3cc(CCCCCN)nn3)CC2)n1", "Potency": "inconclusive: 15.8 µM [inhibitor, partial curve, poor fit]"}, {"smiles": "CCc1ccc(CN2C(=O)c3ccccc3C2C(=O)NCCc2ccc(OC)c(OC)c2)cc1", "note": "(centres undefined)", "Potency": "inactive"}, {"smiles": "CC(=O)Nc1ccc(S(=O)(=O)NCC(=O)OCC(=O)NCc2ccco2)cc1", "Potency": "inconclusive: 28.2 µM [inhibitor, partial curve, poor fit]"}, {"smiles": "Cc1cc2nc(-c3ccc(SCC(=O)N4CCc5ccccc54)nc3)[nH]c2cc1C", "Potency": "inconclusive: 39.8 µM [inhibitor, partial curve]"}, {"smiles": "CCc1nc(SCC(=O)Nc2ccc(N(C)C)cc2)c2ccccc2n1", "Potency": "inconclusive: 63.1 µM [inhibitor, single point]"}, {"smiles": "O=C1C(=O)N(C2CCN(S(=O)(=O)c3ccc(F)cc3)CC2)CCN1Cc1ccccc1", "Potency": "inactive"}, {"smiles": "CCOC(=O)c1cccc(NC(=O)CN2C(=O)CC(C)(C)Sc3ccccc32)c1", "Potency": "inactive"}, {"smiles": "O=C(CNc1n[nH]c(=O)[nH]c1=O)N/N=C/C1CC=CCC1", "note": "(centres undefined)", "Potency": "inconclusive: 89.1 µM [inhibitor, single point]"}, {"smiles": "CC(=O)Oc1cccc(/C=c2\\sc3nc(-c4ccco4)nn3c2=O)c1", "Potency": "inconclusive: 15.8 µM [inhibitor, full curve, poor fit]"}]}]}
